Three molecules from article PMC4827801 can be followed below.

The chains behind the UniProt entries cited, without tags or fusion partners.
UniProt O15379: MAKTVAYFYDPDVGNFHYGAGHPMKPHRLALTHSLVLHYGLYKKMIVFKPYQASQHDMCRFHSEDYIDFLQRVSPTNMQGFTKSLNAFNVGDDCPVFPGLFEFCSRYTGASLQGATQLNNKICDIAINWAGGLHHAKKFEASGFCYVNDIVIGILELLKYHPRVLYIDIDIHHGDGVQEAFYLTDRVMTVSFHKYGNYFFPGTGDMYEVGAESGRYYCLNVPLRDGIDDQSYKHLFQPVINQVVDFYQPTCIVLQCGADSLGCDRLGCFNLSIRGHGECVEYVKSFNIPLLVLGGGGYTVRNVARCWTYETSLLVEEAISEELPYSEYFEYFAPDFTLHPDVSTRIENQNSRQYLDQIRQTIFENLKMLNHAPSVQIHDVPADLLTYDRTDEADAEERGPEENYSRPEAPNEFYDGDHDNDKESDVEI
UniProt O75376: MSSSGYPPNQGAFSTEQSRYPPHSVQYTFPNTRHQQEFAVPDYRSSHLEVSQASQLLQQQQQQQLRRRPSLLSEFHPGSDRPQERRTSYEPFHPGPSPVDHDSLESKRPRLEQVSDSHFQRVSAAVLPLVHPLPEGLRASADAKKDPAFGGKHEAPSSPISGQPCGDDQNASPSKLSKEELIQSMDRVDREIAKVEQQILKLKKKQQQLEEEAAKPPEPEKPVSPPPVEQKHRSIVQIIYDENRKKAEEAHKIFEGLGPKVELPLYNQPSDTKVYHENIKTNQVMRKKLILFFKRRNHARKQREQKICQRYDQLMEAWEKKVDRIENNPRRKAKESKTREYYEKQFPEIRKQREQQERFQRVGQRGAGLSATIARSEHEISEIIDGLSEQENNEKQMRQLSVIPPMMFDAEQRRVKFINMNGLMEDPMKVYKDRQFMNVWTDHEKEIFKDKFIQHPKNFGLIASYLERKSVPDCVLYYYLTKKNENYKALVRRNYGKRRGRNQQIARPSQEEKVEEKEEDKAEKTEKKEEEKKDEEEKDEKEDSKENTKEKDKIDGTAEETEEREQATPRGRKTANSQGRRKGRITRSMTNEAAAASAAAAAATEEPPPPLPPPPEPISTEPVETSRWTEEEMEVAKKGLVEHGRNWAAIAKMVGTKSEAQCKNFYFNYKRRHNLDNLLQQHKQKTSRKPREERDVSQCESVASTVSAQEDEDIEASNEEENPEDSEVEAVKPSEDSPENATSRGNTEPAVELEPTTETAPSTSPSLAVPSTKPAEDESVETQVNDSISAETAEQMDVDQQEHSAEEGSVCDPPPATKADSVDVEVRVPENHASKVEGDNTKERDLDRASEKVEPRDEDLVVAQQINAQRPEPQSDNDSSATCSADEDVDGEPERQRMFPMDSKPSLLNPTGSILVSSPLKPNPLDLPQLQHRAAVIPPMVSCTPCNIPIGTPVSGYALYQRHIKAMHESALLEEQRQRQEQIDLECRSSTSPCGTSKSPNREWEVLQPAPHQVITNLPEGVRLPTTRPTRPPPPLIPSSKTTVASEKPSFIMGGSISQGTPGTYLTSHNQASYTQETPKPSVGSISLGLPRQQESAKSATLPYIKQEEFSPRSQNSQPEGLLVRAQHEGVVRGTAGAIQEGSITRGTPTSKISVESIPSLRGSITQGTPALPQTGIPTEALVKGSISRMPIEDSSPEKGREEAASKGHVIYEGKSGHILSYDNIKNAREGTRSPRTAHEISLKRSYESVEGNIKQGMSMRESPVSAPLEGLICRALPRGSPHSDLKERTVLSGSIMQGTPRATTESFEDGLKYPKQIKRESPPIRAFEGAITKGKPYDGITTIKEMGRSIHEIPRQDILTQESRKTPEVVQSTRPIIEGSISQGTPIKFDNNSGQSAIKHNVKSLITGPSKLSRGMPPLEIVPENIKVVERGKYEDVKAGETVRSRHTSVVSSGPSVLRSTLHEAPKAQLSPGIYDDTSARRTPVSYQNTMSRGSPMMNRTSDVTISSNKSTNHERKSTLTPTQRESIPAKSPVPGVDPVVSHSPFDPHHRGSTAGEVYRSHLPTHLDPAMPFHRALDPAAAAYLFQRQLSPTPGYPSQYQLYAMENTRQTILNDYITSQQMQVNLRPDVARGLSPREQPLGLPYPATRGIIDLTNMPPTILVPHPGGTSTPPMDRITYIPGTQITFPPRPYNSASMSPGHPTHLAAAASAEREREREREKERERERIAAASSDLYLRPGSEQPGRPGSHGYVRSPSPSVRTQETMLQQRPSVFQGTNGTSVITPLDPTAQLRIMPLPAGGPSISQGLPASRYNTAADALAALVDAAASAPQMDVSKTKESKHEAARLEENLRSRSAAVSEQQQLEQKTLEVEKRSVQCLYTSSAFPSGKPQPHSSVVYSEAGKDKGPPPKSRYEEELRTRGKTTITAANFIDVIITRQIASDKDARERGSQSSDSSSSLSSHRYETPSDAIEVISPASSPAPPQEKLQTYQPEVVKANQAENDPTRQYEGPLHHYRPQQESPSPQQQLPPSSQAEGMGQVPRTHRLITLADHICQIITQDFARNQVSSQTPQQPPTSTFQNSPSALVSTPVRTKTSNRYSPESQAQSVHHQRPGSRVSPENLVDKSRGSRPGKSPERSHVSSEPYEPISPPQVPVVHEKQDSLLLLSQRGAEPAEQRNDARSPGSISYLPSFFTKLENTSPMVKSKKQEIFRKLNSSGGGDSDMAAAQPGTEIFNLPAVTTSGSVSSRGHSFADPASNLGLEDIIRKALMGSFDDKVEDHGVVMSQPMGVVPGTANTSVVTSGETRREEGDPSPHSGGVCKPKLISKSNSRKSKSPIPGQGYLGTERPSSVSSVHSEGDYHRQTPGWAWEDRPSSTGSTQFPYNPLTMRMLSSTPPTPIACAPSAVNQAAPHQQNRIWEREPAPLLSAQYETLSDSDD

These are yes or no findings as the source states them, for the method shown. In cells and extracts the contact can be indirect. Some binding calls cover weakened binding; strength is not graded here.

B1: TBL1 (transducin-beta like 1) (protein, UniProt O60907 1-577)
chain: MTELAGASSSCCHRPAGRGAMQSVLHHFQRLRGREGGSHFINTSSPRGEAKMSITSDEVNFLVYRYLQESGFSHSAFTFGIESHISQSNINGTLVPPAALISILQKGLQYVEAEISINEDGTVFDGRPIESLSLIDAVMPDVVQTRQQAFREKLAQQQASAAAAAAAATAAATAATTTSAGVSHQNPSKNREATVNGEENRAHSVNNHAKPMEIDGEVEIPSSKATVLRGHESEVFICAWNPVSDLLASGSGDSTARIWNLNENSNGGSTQLVLRHCIREGGHDVPSNKDVTSLDWNTNGTLLATGSYDGFARIWTEDGNLASTLGQHKGPIFALKWNRKGNYILSAGVDKTTIIWDAHTGEAKQQFPFHSAPALDVDWQNNTTFASCSTDMCIHVCRLGCDRPVKTFQGHTNEVNAIKWDPSGMLLASCSDDMTLKIWSMKQEVCIHDLQAHNKEIYTIKWSPTGPATSNPNSNIMLASASFDSTVRLWDIERGVCTHTLTKHQEPVYSVAFSPDGKYLASGSFDKCVHIWNTQSGNLVHSYRGTGGIFEVCWNARGDKVGASASDGSVCVLDLRK

The test deals with HPV16 E8^E2C-HA (Human papillomavirus 16) (UniProt P0DKA0). The test can be described thus: co-IP; lysates of stable 293T cell lines (1.5 x 10^7 cells) precipitated with magnetic anti-HA beads, immunoblot for endogenous proteins; IP-buffer 50mM HEPES pH7.5, 150mM NaCl, 10% glycerol, 5mM EDTA, 1mM DTT or 50mM HEPES pH7.9, 150mM NaCl, 0.3% Igepal 630, 1mM DTT.
As for “HDAC3 (histone deacetylase 3) (from UniProt O15379 1-428) (enzyme)”, the binding entry is given as “binds”.
On to NCoR (from UniProt O75376 1-2440), for which the binding entry is “binds”.
The same measure for B1: “binds”.
